Test results as given in PubChem BioAssay AID2662 (National Center for Advancing Translational Sciences (NCATS), 2010).
Among all 290,000 compounds or so, about 110 (0.038%) were called active. The inconclusive results got no clear call from the source; some entries with a clear call stand among them for comparison. Calls follow the shape of the dose curve; as a rule, active = well fitted inhibition curve with a large enough effect in the polarisation, with a control signal flat (not every such curve was filed as active); inconclusive = small, poorly fitted or top-dose-only effect, or effect the other way, or a change in a side signal; inactive = no such curve, though single readings can be large or run the other way; the % refers to the polarisation. Potencies beside an inconclusive call are fits to weak or partial responses and may not hold up. “Side channel” marks fits to a control or component signal instead of the main read-out.

Sequences of proteins named here, by UniProt entry; tags and fusion partners are left off.
UniProt Q03164, whole entry, looked up: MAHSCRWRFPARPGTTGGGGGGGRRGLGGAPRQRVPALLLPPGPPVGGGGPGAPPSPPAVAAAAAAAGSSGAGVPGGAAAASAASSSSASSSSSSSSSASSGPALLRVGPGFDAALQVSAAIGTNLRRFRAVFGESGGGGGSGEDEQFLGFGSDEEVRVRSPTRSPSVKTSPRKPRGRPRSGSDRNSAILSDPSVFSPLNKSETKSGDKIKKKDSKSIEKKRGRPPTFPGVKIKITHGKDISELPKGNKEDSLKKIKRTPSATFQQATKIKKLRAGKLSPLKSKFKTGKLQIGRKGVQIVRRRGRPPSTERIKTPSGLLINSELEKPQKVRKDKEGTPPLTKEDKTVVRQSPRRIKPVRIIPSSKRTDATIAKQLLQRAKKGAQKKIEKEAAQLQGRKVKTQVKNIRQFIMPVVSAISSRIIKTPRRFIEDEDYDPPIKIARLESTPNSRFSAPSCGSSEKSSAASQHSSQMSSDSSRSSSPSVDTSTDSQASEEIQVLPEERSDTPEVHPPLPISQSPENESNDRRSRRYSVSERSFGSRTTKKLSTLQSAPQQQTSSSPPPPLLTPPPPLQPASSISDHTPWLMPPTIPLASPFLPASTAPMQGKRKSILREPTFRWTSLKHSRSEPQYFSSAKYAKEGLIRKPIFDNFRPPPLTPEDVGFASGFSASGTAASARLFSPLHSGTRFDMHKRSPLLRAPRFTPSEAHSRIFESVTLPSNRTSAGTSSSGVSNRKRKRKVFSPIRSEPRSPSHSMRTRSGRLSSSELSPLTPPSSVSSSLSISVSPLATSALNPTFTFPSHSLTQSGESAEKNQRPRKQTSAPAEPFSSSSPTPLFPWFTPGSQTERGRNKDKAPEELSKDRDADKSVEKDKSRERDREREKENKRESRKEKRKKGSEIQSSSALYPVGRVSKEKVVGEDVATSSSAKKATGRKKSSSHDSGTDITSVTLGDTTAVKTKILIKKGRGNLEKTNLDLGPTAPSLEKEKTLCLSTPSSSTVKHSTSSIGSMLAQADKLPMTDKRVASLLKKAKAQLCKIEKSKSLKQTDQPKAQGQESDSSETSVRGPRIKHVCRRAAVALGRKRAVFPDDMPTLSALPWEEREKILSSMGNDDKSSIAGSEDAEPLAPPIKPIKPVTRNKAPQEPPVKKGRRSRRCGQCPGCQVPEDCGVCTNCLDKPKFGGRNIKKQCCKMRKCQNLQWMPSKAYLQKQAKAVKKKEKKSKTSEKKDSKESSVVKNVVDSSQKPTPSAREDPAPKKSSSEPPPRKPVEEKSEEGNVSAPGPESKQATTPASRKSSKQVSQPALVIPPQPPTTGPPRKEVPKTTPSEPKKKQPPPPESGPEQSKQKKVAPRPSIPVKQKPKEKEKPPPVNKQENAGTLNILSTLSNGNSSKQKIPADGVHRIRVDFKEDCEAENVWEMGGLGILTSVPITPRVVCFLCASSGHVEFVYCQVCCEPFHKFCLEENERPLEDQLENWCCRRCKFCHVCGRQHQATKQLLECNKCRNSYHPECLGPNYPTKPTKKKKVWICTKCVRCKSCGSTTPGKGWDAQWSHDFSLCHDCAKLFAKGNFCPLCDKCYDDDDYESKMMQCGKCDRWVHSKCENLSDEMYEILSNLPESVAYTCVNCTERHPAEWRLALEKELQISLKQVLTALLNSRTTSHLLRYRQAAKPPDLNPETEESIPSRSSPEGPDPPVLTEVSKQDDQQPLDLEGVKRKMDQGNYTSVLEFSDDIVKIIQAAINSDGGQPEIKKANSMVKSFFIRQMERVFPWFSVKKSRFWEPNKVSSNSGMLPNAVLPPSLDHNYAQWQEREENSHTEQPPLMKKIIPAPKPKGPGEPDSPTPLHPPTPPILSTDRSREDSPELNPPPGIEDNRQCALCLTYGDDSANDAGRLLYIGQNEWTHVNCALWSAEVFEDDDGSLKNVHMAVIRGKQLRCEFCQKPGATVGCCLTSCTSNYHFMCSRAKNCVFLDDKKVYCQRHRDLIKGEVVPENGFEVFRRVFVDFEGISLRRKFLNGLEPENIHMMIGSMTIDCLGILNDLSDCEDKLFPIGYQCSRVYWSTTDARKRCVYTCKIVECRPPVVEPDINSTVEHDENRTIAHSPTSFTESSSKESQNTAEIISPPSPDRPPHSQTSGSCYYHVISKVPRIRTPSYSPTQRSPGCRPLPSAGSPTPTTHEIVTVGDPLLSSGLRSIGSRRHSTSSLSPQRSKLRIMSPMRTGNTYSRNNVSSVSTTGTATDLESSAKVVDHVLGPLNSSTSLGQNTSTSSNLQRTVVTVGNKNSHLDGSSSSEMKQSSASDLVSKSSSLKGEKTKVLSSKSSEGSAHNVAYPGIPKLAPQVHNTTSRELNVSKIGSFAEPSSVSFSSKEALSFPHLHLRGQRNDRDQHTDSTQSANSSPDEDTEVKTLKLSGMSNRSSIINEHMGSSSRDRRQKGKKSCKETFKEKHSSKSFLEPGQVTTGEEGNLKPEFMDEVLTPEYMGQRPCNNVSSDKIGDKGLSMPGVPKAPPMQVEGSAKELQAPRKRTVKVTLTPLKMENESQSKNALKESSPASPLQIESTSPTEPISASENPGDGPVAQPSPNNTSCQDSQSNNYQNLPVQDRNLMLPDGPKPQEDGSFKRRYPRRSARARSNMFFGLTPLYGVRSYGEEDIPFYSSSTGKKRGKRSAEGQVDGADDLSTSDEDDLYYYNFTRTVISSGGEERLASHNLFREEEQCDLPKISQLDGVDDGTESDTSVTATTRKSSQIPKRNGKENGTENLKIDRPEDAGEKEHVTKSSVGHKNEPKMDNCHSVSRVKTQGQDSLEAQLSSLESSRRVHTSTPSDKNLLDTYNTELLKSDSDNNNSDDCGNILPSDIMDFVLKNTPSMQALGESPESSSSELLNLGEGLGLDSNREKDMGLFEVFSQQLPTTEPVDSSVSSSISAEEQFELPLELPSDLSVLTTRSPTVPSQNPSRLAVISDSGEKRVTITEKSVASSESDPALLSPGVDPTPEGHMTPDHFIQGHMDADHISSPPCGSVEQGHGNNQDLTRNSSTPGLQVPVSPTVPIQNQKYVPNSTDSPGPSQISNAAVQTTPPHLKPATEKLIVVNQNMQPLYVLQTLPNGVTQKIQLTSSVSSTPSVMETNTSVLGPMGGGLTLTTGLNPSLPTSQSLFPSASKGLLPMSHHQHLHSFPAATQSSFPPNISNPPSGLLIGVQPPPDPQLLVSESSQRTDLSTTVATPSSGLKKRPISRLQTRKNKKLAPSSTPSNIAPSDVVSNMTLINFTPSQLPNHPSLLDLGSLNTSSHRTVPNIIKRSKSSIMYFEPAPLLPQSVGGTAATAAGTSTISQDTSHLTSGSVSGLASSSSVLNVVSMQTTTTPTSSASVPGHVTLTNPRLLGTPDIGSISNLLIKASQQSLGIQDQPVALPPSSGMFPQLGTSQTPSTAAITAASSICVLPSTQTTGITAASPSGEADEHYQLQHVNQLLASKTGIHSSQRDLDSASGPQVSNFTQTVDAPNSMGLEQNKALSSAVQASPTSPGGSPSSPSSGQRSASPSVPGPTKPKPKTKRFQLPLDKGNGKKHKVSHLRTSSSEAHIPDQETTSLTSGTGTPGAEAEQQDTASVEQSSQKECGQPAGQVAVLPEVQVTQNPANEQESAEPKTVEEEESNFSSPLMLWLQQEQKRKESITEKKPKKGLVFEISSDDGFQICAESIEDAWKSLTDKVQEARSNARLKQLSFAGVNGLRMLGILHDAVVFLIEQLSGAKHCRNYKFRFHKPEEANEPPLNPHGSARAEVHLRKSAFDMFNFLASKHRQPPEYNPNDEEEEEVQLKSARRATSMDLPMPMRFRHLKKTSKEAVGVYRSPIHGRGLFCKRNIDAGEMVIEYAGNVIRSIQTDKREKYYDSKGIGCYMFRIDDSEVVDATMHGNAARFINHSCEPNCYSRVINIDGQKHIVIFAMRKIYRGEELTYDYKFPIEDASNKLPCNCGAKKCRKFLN

biological target: Histone-lysine N-methyltransferase 2A (Homo sapiens) (UniProt Q03164); test: qHTS Fluorescence Polarization Assay for Inhibitors of MLL CXXC domain - DNA interaction; settings: MLL-CXXC / FITC-HOXA9 DNA fluorescence polarization; series mostly up to 115 µM
Procedure, shortened: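 Fluorescence polarization: 7 uM MLL-CXXC (stock) preincubated 5 min with compounds, then 50 nM fluorescein-HOX-A9 DNA (stock) added; 30 min ambient. Buffer 50 mM Tris-HCl pH 7.5, 50 mM NaCl, 1 mM DTT, 0.05% BSA.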
Potency is read from the fitted curve at half-maximal effect.

| SMILES | Potency |
| --- | --- |
| Nc1ccc2nc(CCCCCCc3nc4ccc(N)cc4[nH]3)[nH]c2c1 | inactive |
| CCOc1ccccc1NC(=O)CSc1nnc(NC(=O)c2ccco2)s1 | inconclusive: 14.1 µM [quencher, side channel, single point] |
| O=[N+]([O-])c1cc([N+](=O)[O-])c2oc(-c3ccccc3)c(Br)c2c1O | inactive |
| CC1=CC(=C(C#N)c2nc3ccccc3s2)C=C(C)N1CC1CCCO1 (stereo not drawn) | inconclusive: 35.5 µM [fluorescent, side channel, single point] |
| O=C(N/N=C/c1cc(Cl)ccc1O)C(=O)Nc1ccccc1OC(F)(F)C(F)F | inconclusive: 7.08 µM [quencher, side channel, single point] |
| CCOc1nnc(C)c2c(C)n(-c3cccc(Cl)c3)nc12 | inconclusive: 39.8 µM [fluorescent, partial curve] |
| CCOC(=O)C1CCN(S(=O)(=O)c2ccc(C)c(C(=O)NC3CCCCC3)c2)CC1 | inconclusive: 89.1 µM [quencher, side channel, single point] |
| Cc1[nH]nc(SCC(=O)NC(C)c2ccccc2)c1[N+](=O)[O-] (stereo not drawn) | inconclusive: 10 µM [inhibitor, single point] |
| CC1CCN(CCCCOc2ccc(Cl)cc2)CC1 | inactive |
| Cc1ccc(C2=NN(C(=O)CCC(=O)O)C(c3ccc4c(c3)OCO4)C2)cc1 (stereo not drawn) | inconclusive: 35.5 µM [inhibitor, partial curve] |
| Cc1ccc(C(=O)N2CC(=O)Nc3ccc(F)cc3C2c2ccc(F)cc2)cc1[N+](=O)[O-] (stereo not drawn) | inconclusive: 5.62 µM [fluorescent, side channel, full curve, poor fit] |
| CCn1c(C)cc(/C=C2/SC(=S)N(CC(=O)O)C2=O)c1C | inconclusive: 8.91 µM [fluorescent, side channel, partial curve] |
| COc1ccc(CN2CCNC(=O)C2CC(=O)NCc2cc(C)n(C)n2)c(F)c1 (stereo not drawn) | inconclusive: 31.6 µM [fluorescent, side channel, partial curve] |
| O=C(Nc1ccc(F)cc1)Nc1cnccn1 | inconclusive: 14.1 µM [fluorescent, side channel, single point] |
| CC1CCN(c2ncccc2C(=O)O)CC1 | inconclusive: 35.5 µM [inhibitor, single point] |
| CCc1nc2ccc(C(=O)NCCCN3CCN(c4ccccc4F)CC3)cc2nc1CC | inconclusive: 7.94 µM [inhibitor, single point] |
| CCOC1=C/C(=C/c2c(N)n3nc(CC(=O)N4CCCCC4)sc3nc2=O)C=CC1=O | inconclusive: 70.8 µM [fluorescent, side channel, partial curve] |
| CCc1ncc(/C=C2\C(=O)Nc3ccccc32)[nH]1 | inconclusive: 39.8 µM [fluorescent, side channel, single point] |
| COc1ccc(C(=O)c2sc3nc(C)cc(-c4cccs4)c3c2N)cc1 | inconclusive: 31.6 µM [fluorescent, side channel, partial curve] |
| COc1ccc(-c2cnnc(N/N=C/c3c(C)nn(-c4ccccc4)c3Cl)n2)cc1 | inconclusive: 35.5 µM [fluorescent, side channel, single point] |

| SMILES | Potency |
| --- | --- |
| COc1ccc(CN2CCC(n3nccc3NC(=O)C3CCCC3)CC2)c(OC)c1 | inconclusive: 11.2 µM [quencher, side channel, partial curve] |
| COc1cc(/C=N/Nc2nc3ccccc3[nH]c2=O)ccc1O | inconclusive: 31.6 µM [fluorescent, partial curve] |
| COC(=O)NCc1ccc(CNC(=O)OC)cc1 | inactive |
| CCN1/C(=C/c2cc[n+](CCCS(=O)(=O)[O-])c3ccccc23)Sc2ccccc21 | inconclusive: 39.8 µM [fluorescent, side channel, single point] |
| CC(C)(C)C(=O)NC1CC2CCCC(C1)N2C(=O)Nc1ccc(Cl)cc1 (stereo not drawn) | inconclusive: 63.1 µM [inhibitor, single point] |
| CCCCNCc1cc(Br)c(OCc2cccs2)c(OC)c1 | inconclusive: 44.7 µM [quencher, side channel, partial curve] |
| CSc1nnc(C)c(/C=C/Nc2ccc(Cl)cc2)n1 | inconclusive: 31.6 µM [fluorescent, side channel, partial curve] |
| Cc1cc(C)c2cc3c(N)c(C(=O)Nc4c(C)[nH]c(=O)[nH]c4=O)sc3nc2c1 | inconclusive: 31.6 µM [fluorescent, side channel, single point] |
| N#C/C(=C\c1ccc(O)c(O)c1)C(=O)N1CCCC1 | inconclusive: 15.8 µM [fluorescent, side channel, single point] |
| COc1cccc(OC)c1C(=O)Nn1c(-c2cccc(C)c2)nc2ccccc2c1=O | inconclusive: 8.91 µM [fluorescent, side channel, single point] |
| COC(=O)CN1C(=S)N(Cc2ccccc2)C(=O)C1CC(=O)Nc1ccc(OC)cc1 (stereo not drawn) | inconclusive: 79.4 µM [fluorescent, side channel, single point] |
| COC(=O)CCC(=O)OC1(C)C(=O)C=C2C=C(C3CC3)N(CC3CC3)C=C2C1=O (stereo not drawn) | inconclusive: 35.5 µM [inhibitor, single point] |
| COc1ccc(CCN(C)C2CCCN(C(=O)Cn3cccn3)C2)cc1OC (stereo not drawn) | inconclusive: 10 µM [fluorescent, side channel, single point] |
| COc1cccc(C(=O)C2CCCN(C/C=C/c3ccccc3OC)C2)c1 (stereo not drawn) | inactive |
| CCN1CCN(CC(O)COC(c2ccccc2)c2ccccc2C)CC1 (stereo not drawn) | inconclusive: 25.1 µM [fluorescent, side channel, single point] |
| COCCN(C(=S)Nc1cccc(C)c1C)C(C)c1ccco1 (stereo not drawn) | inconclusive: 56.2 µM [fluorescent, side channel, partial curve] |
| COc1ccc2nc(N=NC3=C(O)CC(C)(C)CC3=O)sc2c1 | inconclusive: 3.98 µM [quencher, side channel, full curve, poor fit] |
| CC(C)c1cc(=O)oc2c3c4c(cc12)CCCN4CCC3 | inconclusive: 25.1 µM [inhibitor, partial curve] |
| CC(C)Cc1nnc(NC(=O)CCS(=O)(=O)c2ccc(Cl)cc2)s1 | inconclusive: 15.8 µM [fluorescent, side channel, partial curve] |
| CNc1ccc(/C=C(\C#N)C(=O)Nc2ccccn2)cc1[N+](=O)[O-] | inconclusive: 70.8 µM [fluorescent, side channel, single point] |

An excerpt from above in order of molar mass, largest number first:

| SMILES | Potency |
| --- | --- |
| COc1cccc(C(=O)C2CCCN(C/C=C/c3ccccc3OC)C2)c1 (stereo not drawn) | inactive |
| CCn1c(C)cc(/C=C2/SC(=S)N(CC(=O)O)C2=O)c1C | inconclusive: 8.91 µM [fluorescent, side channel, partial curve] |
| N#C/C(=C\c1ccc(O)c(O)c1)C(=O)N1CCCC1 | inconclusive: 15.8 µM [fluorescent, side channel, single point] |

Further results follow:

| SMILES | Potency |
| --- | --- |
| Cc1occc1C(=O)N(C)CC1CCCN(CCc2ccccc2F)C1 (stereo not drawn) | inconclusive: 89.1 µM [fluorescent, side channel, single point] |
| N#Cc1ccc(NC(=O)Nc2ccc(Oc3ccc(NC(=O)Nc4ccc(C#N)cc4)cc3)cc2)cc1 | inconclusive: 1 µM [quencher, side channel, full curve, poor fit] |
| CC(OC(=O)c1ccccc1Br)C(=O)Nc1nc(-c2cccc([N+](=O)[O-])c2)cs1 (stereo not drawn) | inconclusive: 11.2 µM [inhibitor, single point] |
| O=C(COc1ccc(Br)cc1Cl)NC1CCCCC1 | inconclusive: 8.91 µM [fluorescent, side channel, single point] |
| CNC(=O)c1cc(C(=O)c2ccc(Cl)cc2)c(Br)[nH]1 | inconclusive: 8.91 µM [fluorescent, side channel, single point] |
| Cc1ccc(S(=O)(=O)N2CCOCC2)cc1C(=O)Nc1ccc2c(c1)CCC2 | inactive |
| O=C(O)c1ccccc1NCc1ccco1 | inconclusive: 7.94 µM [fluorescent, side channel, single point] |
| O=[N+]([O-])c1ccc(COc2ccc(Br)cc2CN2CCOCC2)cc1 | inactive |
| CNC(=S)N1CCn2cccc2C1c1ccc(F)cc1 (stereo not drawn) | inconclusive: 35.5 µM [fluorescent, side channel, single point] |
| O=C(/C=C/c1c(F)cccc1Cl)NCc1ccco1 | inactive |
| N#CC(C#N)=Cc1cc2ccccc2nc1N1CCOCC1 | inconclusive: 22.4 µM [inhibitor, partial curve] |
| CCOc1ccc2nc(/N=C/c3nc(-c4ccccc4)oc3O)sc2c1 | inconclusive: 25.1 µM [fluorescent, side channel, partial curve] |
| CC(C)N(Cc1nc(-c2ccccc2)no1)C(=O)c1ccc(Br)o1 | inactive |
| O=C(Nc1ccc2c(c1)OCO2)c1ccccc1SCC(=O)N1CCCC1 | inconclusive: 70.8 µM [fluorescent, side channel, single point] |
| Cc1ccc(C)n1-c1sccc1C(=O)O | inconclusive: 11.2 µM [fluorescent, side channel, partial curve, poor fit] |
| O=C1N/C(=C/c2ccc(N3CCOCC3)o2)C(=O)N1c1cccc(Cl)c1 | inconclusive: 44.7 µM [fluorescent, side channel, partial curve] |
| N#C/C(=C\c1cn(CC(=O)N2CCCCC2)c2ccccc12)C(=O)NCc1ccc2c(c1)OCO2 | inconclusive: 35.5 µM [fluorescent, side channel, partial curve] |
| Cn1c(=O)c2c(nc(OCCc3ccccc3)n2C)n(C)c1=O | inconclusive: 14.1 µM [fluorescent, side channel, single point] |
